These are yes or no findings as the source states them, for the method shown. For some of these results: Binding seen in cells or lysates may run through a third protein. Some binding calls cover weakened binding; strength is not graded here.
Key:
[1] = target: T1, ANT1: ADP/ATP translocase 1 [Homo sapiens] (Homo sapiens) (UniProt P12235); experiment: co-immunoprecipitation
T1 sequence: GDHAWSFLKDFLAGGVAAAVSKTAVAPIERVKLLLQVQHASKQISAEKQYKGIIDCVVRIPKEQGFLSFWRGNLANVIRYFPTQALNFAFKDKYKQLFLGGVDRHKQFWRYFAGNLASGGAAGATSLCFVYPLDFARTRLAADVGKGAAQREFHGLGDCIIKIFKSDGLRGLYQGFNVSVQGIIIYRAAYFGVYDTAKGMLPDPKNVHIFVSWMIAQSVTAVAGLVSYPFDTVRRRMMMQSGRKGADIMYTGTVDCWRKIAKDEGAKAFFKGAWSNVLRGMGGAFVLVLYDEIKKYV

Chains of the proteins cited; added tags and fusions are not shown. Lines headed by an entry give the natural chain unless they say otherwise; changes in a name come on top.
UniProt P10636: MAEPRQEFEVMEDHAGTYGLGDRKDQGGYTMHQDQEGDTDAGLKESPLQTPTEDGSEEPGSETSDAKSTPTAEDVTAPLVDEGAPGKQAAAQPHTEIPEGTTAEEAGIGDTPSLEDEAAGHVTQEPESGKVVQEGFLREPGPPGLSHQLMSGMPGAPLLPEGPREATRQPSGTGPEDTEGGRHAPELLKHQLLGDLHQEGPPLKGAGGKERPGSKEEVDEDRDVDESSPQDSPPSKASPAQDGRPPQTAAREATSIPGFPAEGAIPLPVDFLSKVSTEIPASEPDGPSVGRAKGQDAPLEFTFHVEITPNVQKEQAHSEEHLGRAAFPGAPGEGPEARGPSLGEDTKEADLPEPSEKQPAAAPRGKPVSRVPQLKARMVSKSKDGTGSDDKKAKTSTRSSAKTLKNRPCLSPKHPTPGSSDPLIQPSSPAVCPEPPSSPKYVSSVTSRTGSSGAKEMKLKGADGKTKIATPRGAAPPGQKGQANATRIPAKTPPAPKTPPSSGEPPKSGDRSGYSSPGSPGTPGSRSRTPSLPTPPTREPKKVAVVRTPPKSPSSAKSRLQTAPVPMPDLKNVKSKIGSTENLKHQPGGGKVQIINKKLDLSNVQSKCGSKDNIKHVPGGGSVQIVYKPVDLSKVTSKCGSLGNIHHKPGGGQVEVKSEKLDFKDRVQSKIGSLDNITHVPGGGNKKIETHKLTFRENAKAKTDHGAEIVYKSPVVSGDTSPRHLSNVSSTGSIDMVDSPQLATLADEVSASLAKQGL

[2] = target: T1, ANT1: ADP/ATP translocase 1 [Homo sapiens] (Homo sapiens); experiment: reciprocal co-immunoprecipitation and confocal colocalisation
[3] = target: T1, ANT1: ADP/ATP translocase 1 [Homo sapiens] (Homo sapiens); experiment: co-immunoprecipitation from AD synaptosomes, bait CCP-NH2 tau antiserum, Western blot with ANT-1 antibody
[4] = target: T1, ANT1: ADP/ATP translocase 1 [Homo sapiens] (Homo sapiens); experiment: reciprocal immunoprecipitation from synaptic mitochondria with ANT-1 antibody, Western blot with CCP-NH2 tau

Measured: binding

20-22 kDa NH2-truncated tau fragment (from UniProt P10636 26-547)
binds: all assays above
